Legend:
[1] = test system: striped bass larva gill tissue; experiment: AA/EPA ratio in larval gill tissue lipids; assay type: in vivo, Morone saxatilis
Artemia nauplii = experiment: Enrichment of Artemia nauplii with DHA:AA diets, lipid and fatty acid composition; assay type: in vivo
[2] = test system: white bass larvae brain/eye, muscle and gill tissues; experiment: Fatty acid composition of white bass larval tissues after dietary treatment; assay type: in vivo, Morone chrysops

CCCCC/C=C\C/C=C\C/C=C\C/C=C\CCCC(=O)O [AA, arachidonic acid] was tested, and the “AA over EPA accumulated in gills (times)” value ([1]; Artemia enriched with 14.5 mg AA g^−1 lipids) was 4 times, the “AA over EPA accumulated in gills (times)” value ([1]; Artemia enriched with 24.8 mg AA g^−1 lipids) was 6 times and the “AA retention by the Artemia” value (Artemia nauplii; 16 h enrichment) was 25.3 mg AA/g dry weight. The “Reduction of maximal retention by Artemia” value (Artemia nauplii; in the presence of increasing dietary levels of the competing fatty acid (AA vs DHA)) was 25%, the “DHA in larval brain/eye tissue” value ([2]; DHA-deficient diets, highest content of dietary AA) was 7.5±1.2 mg DHA/g dry weight and the “Dietary content at maximum accumulation rate of AA in gills” value ([2]; in vivo) was “about 2 mg/g”.
